{
  "sequences": {"note": "By UniProt entry, the sequences of proteins in these tests, tags left out. Residues count along the entry.", "UniProt P35222": "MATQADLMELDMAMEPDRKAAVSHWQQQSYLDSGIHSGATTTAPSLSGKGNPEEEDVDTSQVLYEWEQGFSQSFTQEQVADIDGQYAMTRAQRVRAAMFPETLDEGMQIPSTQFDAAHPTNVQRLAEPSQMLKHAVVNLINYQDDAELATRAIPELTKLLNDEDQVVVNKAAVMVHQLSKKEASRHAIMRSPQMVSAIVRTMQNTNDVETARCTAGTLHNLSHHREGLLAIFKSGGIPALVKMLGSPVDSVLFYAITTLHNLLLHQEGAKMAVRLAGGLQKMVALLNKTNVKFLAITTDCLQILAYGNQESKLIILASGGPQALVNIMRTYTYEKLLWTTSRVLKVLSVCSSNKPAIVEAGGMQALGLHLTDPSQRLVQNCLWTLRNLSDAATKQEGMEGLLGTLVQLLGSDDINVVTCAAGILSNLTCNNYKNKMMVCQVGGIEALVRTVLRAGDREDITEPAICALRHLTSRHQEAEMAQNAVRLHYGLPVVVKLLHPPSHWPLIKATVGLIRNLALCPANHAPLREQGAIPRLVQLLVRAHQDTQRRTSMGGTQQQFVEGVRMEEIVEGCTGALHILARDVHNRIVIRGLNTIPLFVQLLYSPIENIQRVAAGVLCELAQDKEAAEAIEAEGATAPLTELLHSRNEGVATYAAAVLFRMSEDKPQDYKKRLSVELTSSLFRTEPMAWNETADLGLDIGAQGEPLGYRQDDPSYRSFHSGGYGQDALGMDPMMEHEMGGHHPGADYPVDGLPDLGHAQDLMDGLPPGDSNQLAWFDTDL", "UniProt P29317, residues 24-976": "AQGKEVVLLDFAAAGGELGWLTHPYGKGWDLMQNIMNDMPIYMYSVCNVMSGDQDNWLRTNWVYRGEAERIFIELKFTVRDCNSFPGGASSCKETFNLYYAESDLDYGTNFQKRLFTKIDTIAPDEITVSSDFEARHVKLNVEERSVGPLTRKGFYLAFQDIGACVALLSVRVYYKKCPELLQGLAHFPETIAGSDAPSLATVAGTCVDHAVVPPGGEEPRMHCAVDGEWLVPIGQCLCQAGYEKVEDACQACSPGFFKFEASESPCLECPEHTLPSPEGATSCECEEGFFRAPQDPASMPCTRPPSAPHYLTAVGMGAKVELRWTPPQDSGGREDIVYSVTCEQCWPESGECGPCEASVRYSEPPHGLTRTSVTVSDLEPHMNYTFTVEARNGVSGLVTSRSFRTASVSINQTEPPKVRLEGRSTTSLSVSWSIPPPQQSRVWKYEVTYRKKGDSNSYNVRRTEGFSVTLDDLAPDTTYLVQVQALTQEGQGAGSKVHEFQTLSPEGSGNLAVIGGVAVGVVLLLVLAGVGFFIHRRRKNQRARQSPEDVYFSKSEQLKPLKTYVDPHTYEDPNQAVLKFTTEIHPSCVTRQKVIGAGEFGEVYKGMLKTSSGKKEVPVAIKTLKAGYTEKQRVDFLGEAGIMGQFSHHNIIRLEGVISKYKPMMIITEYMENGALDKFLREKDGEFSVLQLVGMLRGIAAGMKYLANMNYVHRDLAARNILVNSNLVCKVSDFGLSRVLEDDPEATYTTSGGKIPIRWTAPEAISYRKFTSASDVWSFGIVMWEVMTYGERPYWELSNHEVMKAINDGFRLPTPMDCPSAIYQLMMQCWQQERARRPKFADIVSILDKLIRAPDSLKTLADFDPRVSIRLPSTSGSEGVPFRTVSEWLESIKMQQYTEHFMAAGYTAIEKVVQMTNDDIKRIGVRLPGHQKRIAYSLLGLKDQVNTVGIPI", "UniProt O15169": "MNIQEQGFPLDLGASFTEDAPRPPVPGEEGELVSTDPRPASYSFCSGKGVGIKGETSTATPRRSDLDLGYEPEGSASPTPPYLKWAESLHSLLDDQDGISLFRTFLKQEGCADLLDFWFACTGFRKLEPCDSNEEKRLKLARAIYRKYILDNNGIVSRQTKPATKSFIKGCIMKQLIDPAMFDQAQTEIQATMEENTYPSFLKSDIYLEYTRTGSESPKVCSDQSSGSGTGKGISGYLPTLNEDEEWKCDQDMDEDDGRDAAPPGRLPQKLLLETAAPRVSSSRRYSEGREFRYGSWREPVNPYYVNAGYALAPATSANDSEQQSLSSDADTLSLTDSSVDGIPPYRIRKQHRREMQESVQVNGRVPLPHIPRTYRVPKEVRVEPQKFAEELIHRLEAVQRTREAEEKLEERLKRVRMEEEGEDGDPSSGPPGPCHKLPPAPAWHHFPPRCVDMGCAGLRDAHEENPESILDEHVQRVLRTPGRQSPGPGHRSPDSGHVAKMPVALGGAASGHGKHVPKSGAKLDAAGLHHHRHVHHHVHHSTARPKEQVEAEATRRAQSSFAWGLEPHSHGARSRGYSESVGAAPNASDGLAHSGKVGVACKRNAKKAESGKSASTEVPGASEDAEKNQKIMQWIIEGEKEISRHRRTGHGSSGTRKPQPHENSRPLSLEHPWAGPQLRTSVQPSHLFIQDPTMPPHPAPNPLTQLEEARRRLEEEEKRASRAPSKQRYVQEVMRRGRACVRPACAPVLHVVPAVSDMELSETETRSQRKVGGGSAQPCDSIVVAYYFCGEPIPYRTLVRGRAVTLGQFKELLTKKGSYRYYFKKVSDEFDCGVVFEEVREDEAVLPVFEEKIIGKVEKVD"},
  "source": "paper PMC6242896",
  "molecules": {"B1": {"name": "Flag-Wnt1 (ligand, UniProt P04628 28-370)", "chain": "ANSSGRWWGIVNVASSTNLLTDSKSLQLVLEPSLQLLSRKQRRLIRQNPGILHSVSGGLQSAVRECKWQFRNRRWNCPTAPGPHLFGKIVNRGCRETAFIFAITSAGVTHSVARSCSEGSIESCTCDYRRRGPGGPDWHWGGCSDNIDFGRLFGREFVDSGEKGRDLRFLMNLHNNEAGRTTVFSEMRQECKCHGMSGSCTVRTCWMRLPTLRAVGDVLRDRFDGASRVLYGNRGSNRASRAELLRLEPEDPAHKPPSPHDLVYFEKSPNFCTYSGRLGTAGTAGRACNSSSPALDGCELLCCGRGHRTRTQRVTERCNCTFHWCCHVSCRNCTHTRVLHECL"}},
  "key": {"GST-Wnt1": {"molecular_target": "T1, GST-Wnt1 (UniProt P04628)", "T1 sequence": "B1 chain", "assay": "pull-down; GST-Wnt1 on glutathione beads incubated with EphA2 overnight at 4 °C, washed with PBS; blot with anti-EphA2; source of EphA2 not told"}, "[1]": {"molecular_target": "endogenous β-catenin (human (endogenous in AGS)) (UniProt P35222)", "assay": "co-IP; endogenous proteins in AGS and BGC823 lysates; 2 μg antibody overnight at 4 °C, Protein A/G-Sepharose; also after Flag-Dvl2 overexpression, si-Dvl2, Wnt3a stimulation, EphA2 overexpression, EphA2 shRNA or EphrinA1 treatment"}, "[2]": {"molecular_target": "EPH receptor A2 (EphA2), expressed from pcDNA3.1-EphA2 (UniProt P29317)", "assay": "proximity ligation; Duolink PLA; HEK293 cells transfected with pcDNA3.1-EphA2 for 48 h, incubated with Flag-Wnt1 conditioned medium for 3 h, fixed and permeabilised; anti-Flag (mouse) and anti-EphA2 (rabbit)"}, "[3]": {"molecular_target": "EPH receptor A2 (EphA2), expressed from pcDNA3.1-EphA2 (UniProt P29317)", "assay": "co-IP; pcDNA3.1-EphA2 and Flag-Wnt1 co-expressed in HEK293 cells for 48 h; lysate precipitated with anti-EphA2 or anti-Flag"}},
  "note": "Results are given in words; binding and its absence hold for the method and conditions named. Binding seen in cells or lysates may run through a third protein. Some binding calls cover weakened binding; strength is not graded here. For some of these results: Tags and fused reporters may be left off the sequences shown.",
  "data": [
    {"molecule": "EphA2 (as used in the GST-Wnt1 pull-down, Fig. 1f) (from UniProt P29317 24-976) (receptor)", "values": [
      {"measurement": "binding", "setting": "GST-Wnt1", "result": "binds"}
    ]},
    {"molecule": "endogenous Axin1 (from UniProt O15169 1-862)", "values": [
      {"measurement": "binding", "setting": "[1]", "result": "binds"}
    ]},
    {"molecule": "B1", "values": [
      {"measurement": "binding", "setting": "[2]", "result": "binds"},
      {"measurement": "binding", "setting": "[3]", "result": "binds"}
    ]}
  ]
}
